{"source": "patent EP0518769B1", "about": "“Ethanolaminebenzoate derivative, process for their preparation and pharmaceutical compositions containing them” (ADIR ET COMPAGNIE, priority 1991, dated 1992)", "key": {"[1]": {"tested_on": "Rats SDCD mâles 52 semaines", "experiment": "Acute treatment by portal perfusion in the conscious rat, with IVGTT", "assay_type": "in vivo", "details": "15 µg/kg/min×60 min intraportal perfusion; the word probably spans all four columns of the table", "text": "La technique de perfusion portale chez le rat vigile permet d'étudier l'effet de substances pharmacologiques sur les modifications de la tolérance au glucose adminstré par voie intraveineuse.\nL'injection d'agents directement dans la circulation portale permet d'éviter les effets du transit gastrique, d'absorption et de libération d'hormone par la paroi intestinale et ainsi d'explorer : • soit un effet direct sur le tissu hépatique, • soit l'existence d'un relai foie-système nerveux central-tissu périphérique (foie, muscle ou cible endocrine).\nDans cette expérimentation, on a utilisé des rats mâles adultes SPRAGUE DAWLEY par lots de 5 à 12 rats.\nLes rats utilisés, agés de 52 semaines, présentent • une diminution de la tolérance au glucose, • une augmentation de l'insulinémie basale, et • une augmentation des lipides plasmatiques.\nLa stabulation (de 9 à 52 semaines) de ces rats a été réalisée dans une pièce à température régulée de 21 à 22 °C et soumise à un cycle fixe de lumière (de 7 h 30 à 19 h 30) et d'obscurité (de 19 h 30 à 7 h 30). Leur alimentation a consisté en un régime d'entretien (UAR A 03); eau et nourriture ont été fournies \"ad libitum\", à l'exception du jeûne nocturne précédant les tests où la nourriture était retirée. […]"}, "esters de cholestérol": {"tested_on": "esters de cholestérol", "experiment": "Incorporation of oleate into cholesterol esters", "details": "à 10⁻⁵ M"}}, "note": "At least one structure is not confirmed: it was looked up by name or label, or the drawing left a doubt.", "data": [{"smiles": "CN(C)C(=N)NC(=N)N", "note": "[Diméthylbiguanide]", "values": [{"measurement": "Insulinémie basale Variation %", "setting": "[1]", "value": "Inactif"}, {"measurement": "Incorporation d'oléate dans les esters de cholestérol", "setting": "esters de cholestérol", "value": "Inactif à 10⁻⁵ M"}]}]}
